Experimental data: publication doi:10.1101/2025.02.10.637372
Results are given in words; binding and its absence hold for the method and conditions named. Binding seen in cells or lysates may run through a third protein. Some entries that bind do so weakly or less than the wild type.

Sequences of proteins named here, by UniProt entry; tags and fusion partners are left off.
UniProt Q99549: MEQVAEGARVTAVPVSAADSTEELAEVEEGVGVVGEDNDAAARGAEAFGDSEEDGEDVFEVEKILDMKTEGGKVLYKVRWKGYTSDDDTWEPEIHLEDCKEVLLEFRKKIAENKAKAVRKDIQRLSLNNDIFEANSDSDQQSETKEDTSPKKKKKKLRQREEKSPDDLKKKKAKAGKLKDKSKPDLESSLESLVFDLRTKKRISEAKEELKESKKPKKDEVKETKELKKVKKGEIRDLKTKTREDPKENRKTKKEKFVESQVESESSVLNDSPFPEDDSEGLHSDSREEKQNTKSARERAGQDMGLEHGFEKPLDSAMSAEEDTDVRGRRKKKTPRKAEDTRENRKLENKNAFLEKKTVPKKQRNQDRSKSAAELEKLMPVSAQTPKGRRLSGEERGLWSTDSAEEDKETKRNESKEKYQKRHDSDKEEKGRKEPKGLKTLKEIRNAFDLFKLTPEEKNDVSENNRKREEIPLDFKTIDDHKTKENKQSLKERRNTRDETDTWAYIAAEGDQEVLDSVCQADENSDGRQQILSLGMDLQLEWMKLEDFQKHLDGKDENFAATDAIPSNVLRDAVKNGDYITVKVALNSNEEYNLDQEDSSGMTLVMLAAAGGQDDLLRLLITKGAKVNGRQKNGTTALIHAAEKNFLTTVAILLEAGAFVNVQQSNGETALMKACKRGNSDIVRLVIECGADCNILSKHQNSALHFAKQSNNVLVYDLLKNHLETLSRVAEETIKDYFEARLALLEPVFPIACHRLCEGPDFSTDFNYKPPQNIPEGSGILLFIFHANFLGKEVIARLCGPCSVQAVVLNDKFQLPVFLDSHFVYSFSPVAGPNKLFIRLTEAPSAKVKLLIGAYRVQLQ
UniProt Q9UK61: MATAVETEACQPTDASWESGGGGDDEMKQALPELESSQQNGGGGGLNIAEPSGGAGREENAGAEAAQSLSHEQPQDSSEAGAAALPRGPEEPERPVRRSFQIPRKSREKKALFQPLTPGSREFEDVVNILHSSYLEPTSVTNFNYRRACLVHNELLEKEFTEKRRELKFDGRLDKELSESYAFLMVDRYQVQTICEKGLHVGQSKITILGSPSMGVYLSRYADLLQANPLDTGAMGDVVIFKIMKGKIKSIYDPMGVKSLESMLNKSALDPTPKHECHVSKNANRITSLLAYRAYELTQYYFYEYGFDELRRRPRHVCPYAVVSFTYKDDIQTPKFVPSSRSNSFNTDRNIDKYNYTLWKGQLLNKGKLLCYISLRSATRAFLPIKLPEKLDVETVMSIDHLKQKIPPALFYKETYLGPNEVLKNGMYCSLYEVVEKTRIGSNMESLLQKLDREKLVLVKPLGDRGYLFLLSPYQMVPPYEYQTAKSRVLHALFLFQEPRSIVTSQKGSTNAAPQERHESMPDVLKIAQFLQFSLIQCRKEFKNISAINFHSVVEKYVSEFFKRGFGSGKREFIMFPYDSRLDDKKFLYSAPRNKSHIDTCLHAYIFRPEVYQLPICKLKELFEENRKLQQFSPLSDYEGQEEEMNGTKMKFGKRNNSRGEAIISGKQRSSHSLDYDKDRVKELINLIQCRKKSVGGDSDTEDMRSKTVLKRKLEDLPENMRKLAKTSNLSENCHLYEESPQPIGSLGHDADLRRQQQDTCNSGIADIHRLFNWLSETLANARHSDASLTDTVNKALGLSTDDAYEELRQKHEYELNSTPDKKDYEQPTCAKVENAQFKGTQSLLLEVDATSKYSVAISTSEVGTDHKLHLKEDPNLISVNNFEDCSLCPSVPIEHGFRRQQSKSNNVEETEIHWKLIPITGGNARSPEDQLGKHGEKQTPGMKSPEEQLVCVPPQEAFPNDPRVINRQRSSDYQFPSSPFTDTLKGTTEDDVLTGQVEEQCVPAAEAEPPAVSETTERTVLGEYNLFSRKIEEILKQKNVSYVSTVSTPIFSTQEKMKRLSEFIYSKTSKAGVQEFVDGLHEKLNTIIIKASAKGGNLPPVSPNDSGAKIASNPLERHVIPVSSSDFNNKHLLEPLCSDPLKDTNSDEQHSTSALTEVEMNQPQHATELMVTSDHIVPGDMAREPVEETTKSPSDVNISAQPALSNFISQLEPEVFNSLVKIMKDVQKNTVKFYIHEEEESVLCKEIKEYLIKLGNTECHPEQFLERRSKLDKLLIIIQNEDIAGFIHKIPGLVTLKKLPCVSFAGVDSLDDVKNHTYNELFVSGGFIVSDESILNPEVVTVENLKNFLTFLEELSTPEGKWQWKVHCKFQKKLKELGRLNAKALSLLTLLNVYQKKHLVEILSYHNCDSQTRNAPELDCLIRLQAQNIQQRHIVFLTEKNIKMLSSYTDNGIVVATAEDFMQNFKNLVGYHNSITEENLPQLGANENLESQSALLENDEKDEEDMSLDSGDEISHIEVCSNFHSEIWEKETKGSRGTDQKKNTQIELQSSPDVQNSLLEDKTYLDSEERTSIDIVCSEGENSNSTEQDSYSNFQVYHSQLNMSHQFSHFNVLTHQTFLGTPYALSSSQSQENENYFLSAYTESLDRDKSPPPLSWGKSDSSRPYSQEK

How the values were obtained:
[1] = biological target: M-phase phosphoprotein 8 (MPP8) (human (endogenous in H1299)) (UniProt Q99549); assay: co-IP
[2] = biological target: transcriptional activation suppressor (TASOR) (human (endogenous in H1299)) (UniProt Q9UK61); assay: co-IP

Substance: HAdV early protein E1B-55K (from UniProt P03243 1-496)
- binding [1]: binds
- binding [2]: binds
